Source: PubChem BioAssay AID504786 (Drosophila RNAi Screening Center, 2011)

Purpose: 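Positive regulators of HIF-driven reporter output in Drosophila cells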 (primary screen)
System: Drosophila S2 cells with a stable HIF luciferase reporter
Reagent: long dsRNA against Drosophila genes, about 0.2 µg dsRNA per well of a 384-well plate
Duration: three days of knock-down, then 20 h of DFO before reading
Treatment: desferrioxamine (DFO) at 100 µM, an iron chelator that mimics hypoxia, for 20 h
Detection: 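Firefly luciferase driven by the mouse ldh-a hypoxia-response element, measured after 20 h of 100 µM DFO; z-scores per plate, higher means more signal lost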
Scale: z-score: higher = stronger loss of HIF reporter signal
The screen tested about 21,000 reagents; below is an unselected part of those with a known target gene and a result. 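Primary screen; positive scores mean lost reporter signal, so the sign may be inverted from the usual convention.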

no.	Target gene	dsRNA	z-score, replicate 1	z-score, replicate 2
1	CG10799	DRSC06002	0	0
2	sala	DRSC03605	-0.2	-0.4
3	Hydr1	DRSC07063	-0.3	-0.2
4	CG4161	DRSC01930	-0.2	-0.3
5	I-3	DRSC20479	0	-0.5
6	nyo	DRSC15029	-0.4	-0.2
7	nyo	DRSC15030	-0.3	0.2
8	Trhn	DRSC08621	-0.2	0.5
9	CG34348	DRSC19425	-0.2	-0.7
10	CG34348	DRSC19644	-0.3	-0.5
11	CG4462	DRSC15583	-0.2	-1
12	hkb	DRSC12377	-0.3	-0.6
13	ct	DRSC18757	2.1	2.8
14	Gr28b	DRSC02291	-0.3	-0.2
15	Gr28b	DRSC02292	-0.1	-0.4
16	CG34232	DRSC05332	-0.3	-0.3
17	SERCA	DRSC04600	-0.5	-1.6
18	ebo	DRSC18787	0	-0.2
19	CG16978	DRSC02553	-0.2	-0.6
20	pot	DRSC19850	-0.4	-0.6
21	CG10814	DRSC06004	-0.2	-0.8

Laid out differently: results already given.
Target gene	dsRNA	z-score, replicate 1	z-score, replicate 2
CG34232	DRSC05332	-0.3	-0.3
SERCA	DRSC04600	-0.5	-1.6

The listing continues.
no.	Target gene	dsRNA	z-score, replicate 1	z-score, replicate 2
22	Arl6	DRSC07031	-0.3	-0.7
23	CG34444	DRSC06435	-0.4	-0.8
24	mRpS16	DRSC07152	0.5	-0.1
25	CG33494	DRSC13715	-0.1	0
26	Gr47a	DRSC06221	-0.2	-0.2
27	CG11737	DRSC14364	-0.2	-1.1
28	CG5004	DRSC19929	-0.3	-0.1
29	CG5004	DRSC19930	0.1	-0.4
30	CG5004	DRSC20123	0.9	0.8
31	CG12935	DRSC06248	-0.3	-0.3
32	CG8774	DRSC16445	0.1	0.3
33	Gr98d	DRSC14571	-0.1	-0.1
34	SdhBL	DRSC20039	-0.3	-0.1
